From publication PMC4352044
These are yes or no findings as the source states them, for the method shown. Binding seen in cells or lysates may run through a third protein. A result given as binding can be weak or reduced; the word gives no strength.

Target: T1, Scc3-6HA (budding yeast) (UniProt P40541)
T1 sequence: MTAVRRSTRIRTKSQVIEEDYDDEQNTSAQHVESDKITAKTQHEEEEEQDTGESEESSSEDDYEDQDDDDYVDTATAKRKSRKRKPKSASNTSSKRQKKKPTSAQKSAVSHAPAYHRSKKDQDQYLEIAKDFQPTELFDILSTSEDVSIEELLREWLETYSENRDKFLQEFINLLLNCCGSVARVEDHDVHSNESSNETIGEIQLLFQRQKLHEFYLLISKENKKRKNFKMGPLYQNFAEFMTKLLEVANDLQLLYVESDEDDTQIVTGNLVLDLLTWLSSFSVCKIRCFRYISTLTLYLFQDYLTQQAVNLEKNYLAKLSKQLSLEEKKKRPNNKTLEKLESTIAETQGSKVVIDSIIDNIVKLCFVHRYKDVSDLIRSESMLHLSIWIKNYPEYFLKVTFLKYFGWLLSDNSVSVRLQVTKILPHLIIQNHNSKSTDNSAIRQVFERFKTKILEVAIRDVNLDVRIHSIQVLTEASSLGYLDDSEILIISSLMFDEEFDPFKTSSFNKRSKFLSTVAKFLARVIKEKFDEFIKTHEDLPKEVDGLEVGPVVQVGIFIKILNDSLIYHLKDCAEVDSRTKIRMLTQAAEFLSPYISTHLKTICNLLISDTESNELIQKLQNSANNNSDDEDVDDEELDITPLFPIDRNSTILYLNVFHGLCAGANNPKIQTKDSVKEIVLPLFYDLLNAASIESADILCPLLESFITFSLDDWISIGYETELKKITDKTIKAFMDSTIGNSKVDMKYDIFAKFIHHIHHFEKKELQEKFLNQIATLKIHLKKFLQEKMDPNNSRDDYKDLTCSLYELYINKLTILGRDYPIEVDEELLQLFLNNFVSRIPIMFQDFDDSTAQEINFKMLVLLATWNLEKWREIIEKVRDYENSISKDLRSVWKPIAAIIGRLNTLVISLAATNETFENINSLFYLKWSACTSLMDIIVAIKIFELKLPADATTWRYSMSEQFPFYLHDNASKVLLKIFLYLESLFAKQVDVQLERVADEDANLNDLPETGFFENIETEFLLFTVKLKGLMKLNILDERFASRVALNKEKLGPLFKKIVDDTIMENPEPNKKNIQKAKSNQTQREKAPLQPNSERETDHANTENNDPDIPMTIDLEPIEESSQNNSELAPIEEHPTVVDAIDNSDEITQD
Assay: co-IP; anti-HA immunoprecipitation of Scc3-6HA (wild type or mutant) from yeast lysates, mid-log cells; IPH150 or IPH50 buffer (50 mM Tris pH 8.0, 150/50 mM NaCl, 5 mM EDTA, 0.5% NP-40, 1 mM DTT), 4°C, protein A/G agarose, Western blot of partners; also in wpl1Δ strains and after depletion of Pds5-3V5-AID with 1 mM IAA

For Wpl1-3V5 (budding yeast), the binding was “binds”.
